Data: the supplement of paper PMC10849652
Some of the results follow.

The chains behind the UniProt entries cited, without tags or fusion partners. Where a name states a change or a piece, a line headed by the entry shows the natural chain unless it says otherwise.
UniProt Q8WV07: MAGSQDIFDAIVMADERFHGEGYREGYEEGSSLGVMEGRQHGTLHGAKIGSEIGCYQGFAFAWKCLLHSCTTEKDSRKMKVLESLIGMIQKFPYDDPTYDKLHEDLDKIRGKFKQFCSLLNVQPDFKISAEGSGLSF
UniProt Q9Y4F3: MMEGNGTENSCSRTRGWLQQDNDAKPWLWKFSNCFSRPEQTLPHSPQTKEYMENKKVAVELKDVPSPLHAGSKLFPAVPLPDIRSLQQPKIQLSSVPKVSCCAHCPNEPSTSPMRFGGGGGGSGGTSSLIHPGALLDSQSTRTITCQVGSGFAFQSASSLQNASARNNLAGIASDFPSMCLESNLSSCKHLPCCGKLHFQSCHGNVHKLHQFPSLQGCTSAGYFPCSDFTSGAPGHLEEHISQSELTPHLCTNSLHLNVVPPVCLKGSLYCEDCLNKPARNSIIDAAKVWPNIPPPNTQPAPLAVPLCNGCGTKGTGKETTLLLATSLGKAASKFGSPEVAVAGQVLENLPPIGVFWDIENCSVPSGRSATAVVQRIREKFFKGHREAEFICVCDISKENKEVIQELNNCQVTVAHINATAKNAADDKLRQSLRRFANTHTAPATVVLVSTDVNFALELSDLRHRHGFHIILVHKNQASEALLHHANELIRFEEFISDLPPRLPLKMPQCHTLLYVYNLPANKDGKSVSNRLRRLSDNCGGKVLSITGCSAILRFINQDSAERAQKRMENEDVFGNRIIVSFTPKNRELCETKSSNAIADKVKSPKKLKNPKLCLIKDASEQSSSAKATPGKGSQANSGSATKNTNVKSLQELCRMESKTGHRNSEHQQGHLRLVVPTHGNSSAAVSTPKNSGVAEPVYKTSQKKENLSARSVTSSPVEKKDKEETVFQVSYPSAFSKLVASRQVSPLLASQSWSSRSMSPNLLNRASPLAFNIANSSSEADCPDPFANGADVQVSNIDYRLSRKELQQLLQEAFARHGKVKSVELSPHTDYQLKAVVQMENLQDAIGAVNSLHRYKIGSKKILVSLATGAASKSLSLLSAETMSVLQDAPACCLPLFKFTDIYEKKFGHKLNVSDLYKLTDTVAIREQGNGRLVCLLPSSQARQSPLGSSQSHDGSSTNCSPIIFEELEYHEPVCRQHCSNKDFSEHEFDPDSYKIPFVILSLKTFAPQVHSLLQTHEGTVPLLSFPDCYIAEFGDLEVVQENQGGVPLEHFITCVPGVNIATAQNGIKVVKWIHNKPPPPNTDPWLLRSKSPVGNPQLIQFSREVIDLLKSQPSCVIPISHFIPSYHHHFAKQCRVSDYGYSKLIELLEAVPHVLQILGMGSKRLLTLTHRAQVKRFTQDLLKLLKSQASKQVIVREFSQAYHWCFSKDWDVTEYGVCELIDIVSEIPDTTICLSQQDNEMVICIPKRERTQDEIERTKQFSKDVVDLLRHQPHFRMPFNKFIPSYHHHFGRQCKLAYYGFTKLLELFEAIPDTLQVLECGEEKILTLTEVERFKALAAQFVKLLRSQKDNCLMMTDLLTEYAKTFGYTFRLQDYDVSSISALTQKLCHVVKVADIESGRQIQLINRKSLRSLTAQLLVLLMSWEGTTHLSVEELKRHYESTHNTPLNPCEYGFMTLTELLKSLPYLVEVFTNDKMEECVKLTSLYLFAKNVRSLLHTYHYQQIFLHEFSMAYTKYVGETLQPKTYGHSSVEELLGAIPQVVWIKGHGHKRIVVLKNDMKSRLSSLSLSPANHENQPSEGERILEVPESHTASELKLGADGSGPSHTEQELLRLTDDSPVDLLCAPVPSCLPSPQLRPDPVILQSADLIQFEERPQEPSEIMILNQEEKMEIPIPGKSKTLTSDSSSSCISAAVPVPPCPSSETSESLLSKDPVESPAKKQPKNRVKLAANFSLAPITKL
UniProt Q9BRK4: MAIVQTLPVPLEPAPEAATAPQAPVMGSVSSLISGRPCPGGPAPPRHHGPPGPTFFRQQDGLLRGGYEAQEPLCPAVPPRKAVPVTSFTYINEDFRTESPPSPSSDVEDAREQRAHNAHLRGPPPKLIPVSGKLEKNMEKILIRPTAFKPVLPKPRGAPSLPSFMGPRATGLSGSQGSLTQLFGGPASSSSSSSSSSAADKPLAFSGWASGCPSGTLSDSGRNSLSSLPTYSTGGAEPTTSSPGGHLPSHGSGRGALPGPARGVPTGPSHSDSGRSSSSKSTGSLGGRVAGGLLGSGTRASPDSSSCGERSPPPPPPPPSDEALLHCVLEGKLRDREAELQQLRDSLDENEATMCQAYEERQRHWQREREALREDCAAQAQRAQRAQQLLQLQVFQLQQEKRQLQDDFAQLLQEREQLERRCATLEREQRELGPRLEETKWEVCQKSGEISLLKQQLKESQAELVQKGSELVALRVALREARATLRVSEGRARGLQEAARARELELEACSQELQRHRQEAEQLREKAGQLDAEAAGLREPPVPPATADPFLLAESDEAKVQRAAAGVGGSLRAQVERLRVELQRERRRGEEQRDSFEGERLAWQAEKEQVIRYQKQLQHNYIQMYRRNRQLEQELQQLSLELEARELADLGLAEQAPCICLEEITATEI
UniProt Q13233: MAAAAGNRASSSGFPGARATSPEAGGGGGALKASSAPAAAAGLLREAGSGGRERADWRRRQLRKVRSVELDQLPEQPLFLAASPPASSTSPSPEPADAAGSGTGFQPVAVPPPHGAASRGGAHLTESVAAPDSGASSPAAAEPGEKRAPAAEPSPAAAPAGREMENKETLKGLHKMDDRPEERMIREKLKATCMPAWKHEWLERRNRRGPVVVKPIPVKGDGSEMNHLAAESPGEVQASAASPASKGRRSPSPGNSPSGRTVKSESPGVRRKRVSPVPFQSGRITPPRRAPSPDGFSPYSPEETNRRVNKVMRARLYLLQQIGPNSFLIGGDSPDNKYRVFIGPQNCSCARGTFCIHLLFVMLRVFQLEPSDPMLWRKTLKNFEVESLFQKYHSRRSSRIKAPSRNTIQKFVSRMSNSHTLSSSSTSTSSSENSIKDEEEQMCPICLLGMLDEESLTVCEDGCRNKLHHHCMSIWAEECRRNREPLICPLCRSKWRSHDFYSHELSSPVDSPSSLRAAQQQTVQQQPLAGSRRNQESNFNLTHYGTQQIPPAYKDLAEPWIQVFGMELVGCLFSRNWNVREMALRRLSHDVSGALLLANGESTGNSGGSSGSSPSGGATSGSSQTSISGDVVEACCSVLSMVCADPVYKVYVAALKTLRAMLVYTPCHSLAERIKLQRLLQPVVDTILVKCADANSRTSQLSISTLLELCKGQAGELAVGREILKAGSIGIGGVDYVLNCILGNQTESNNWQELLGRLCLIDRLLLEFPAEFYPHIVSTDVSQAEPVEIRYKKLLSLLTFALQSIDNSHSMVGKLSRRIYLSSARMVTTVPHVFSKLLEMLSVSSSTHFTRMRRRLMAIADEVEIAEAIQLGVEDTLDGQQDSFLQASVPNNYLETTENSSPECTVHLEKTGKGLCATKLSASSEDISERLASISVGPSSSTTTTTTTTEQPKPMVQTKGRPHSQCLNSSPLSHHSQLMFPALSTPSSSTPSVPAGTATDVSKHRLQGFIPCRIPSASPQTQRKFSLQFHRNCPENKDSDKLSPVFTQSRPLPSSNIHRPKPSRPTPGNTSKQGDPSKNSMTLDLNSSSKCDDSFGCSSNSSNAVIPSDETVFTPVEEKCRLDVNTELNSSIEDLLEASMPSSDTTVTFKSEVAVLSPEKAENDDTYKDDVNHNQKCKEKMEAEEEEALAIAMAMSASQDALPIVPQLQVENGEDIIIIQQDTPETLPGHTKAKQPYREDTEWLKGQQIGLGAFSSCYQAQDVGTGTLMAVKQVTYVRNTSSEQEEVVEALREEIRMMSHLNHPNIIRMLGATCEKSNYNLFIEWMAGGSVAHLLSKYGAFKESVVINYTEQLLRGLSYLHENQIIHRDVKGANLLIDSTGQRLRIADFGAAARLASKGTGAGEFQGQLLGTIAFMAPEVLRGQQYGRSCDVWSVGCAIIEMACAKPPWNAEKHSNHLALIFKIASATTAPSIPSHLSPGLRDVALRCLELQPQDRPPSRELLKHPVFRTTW
UniProt Q14244: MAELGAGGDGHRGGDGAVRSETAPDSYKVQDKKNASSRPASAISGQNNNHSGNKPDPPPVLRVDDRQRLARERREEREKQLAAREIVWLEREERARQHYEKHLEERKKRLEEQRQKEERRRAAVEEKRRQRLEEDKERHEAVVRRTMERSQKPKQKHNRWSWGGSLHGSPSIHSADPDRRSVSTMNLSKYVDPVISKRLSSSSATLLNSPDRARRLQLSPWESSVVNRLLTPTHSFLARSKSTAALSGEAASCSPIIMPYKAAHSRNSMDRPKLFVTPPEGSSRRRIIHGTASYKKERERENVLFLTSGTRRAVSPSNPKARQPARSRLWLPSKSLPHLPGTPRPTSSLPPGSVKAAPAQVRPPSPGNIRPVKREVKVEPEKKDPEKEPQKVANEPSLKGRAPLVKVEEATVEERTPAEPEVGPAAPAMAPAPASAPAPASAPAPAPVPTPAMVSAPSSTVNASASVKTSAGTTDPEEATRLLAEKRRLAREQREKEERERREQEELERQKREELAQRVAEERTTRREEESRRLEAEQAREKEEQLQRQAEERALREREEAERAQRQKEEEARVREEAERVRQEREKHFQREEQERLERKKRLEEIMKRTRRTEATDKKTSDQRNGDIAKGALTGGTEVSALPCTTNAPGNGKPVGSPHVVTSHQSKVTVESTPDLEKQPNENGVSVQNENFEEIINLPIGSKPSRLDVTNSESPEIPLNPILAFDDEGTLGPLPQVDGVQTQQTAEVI
UniProt P43358: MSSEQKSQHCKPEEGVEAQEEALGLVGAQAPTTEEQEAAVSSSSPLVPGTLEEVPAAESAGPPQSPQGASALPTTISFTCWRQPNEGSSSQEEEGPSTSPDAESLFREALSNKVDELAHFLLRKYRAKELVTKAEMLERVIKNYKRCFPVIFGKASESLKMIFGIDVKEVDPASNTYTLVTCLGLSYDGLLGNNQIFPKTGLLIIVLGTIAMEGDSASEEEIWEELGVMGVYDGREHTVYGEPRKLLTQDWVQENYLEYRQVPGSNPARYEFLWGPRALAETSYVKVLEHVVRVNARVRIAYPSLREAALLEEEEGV
UniProt Q9BSK0: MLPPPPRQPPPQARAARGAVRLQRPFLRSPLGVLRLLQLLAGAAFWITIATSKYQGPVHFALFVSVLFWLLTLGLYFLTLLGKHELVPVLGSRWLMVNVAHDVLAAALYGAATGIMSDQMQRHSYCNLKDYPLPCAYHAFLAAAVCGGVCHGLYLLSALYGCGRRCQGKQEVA
UniProt Q15759, whole entry, looked up: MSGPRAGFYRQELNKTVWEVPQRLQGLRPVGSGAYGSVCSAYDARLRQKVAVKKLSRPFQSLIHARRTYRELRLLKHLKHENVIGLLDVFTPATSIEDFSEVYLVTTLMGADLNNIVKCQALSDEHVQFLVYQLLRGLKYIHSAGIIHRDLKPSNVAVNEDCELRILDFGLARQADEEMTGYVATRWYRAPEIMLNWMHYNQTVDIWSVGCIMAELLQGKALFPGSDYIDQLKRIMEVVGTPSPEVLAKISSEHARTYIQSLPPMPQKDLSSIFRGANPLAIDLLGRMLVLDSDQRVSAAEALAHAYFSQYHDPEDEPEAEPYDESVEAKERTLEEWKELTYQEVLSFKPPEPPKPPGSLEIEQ
UniProt P43357, whole entry, looked up: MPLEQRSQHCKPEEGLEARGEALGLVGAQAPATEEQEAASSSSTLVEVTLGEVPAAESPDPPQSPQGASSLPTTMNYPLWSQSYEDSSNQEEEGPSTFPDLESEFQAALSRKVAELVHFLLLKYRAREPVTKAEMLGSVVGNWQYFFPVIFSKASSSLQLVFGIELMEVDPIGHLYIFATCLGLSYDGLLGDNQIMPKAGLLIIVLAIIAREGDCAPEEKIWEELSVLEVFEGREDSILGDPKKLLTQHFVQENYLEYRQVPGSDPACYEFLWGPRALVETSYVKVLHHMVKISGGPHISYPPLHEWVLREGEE

Legend:
Assay in all cases: log2 fold change, soluble protein after heating vs DMSO (PISA); higher = thermal stabilisation; K562 lysate, 10 uM; active = over 0.2 and 3.5 SD of the protein, either way, in both replicates (recomputed)
[1] = compound: CCCS(=O)(=O)Nc1ccc(F)c(C(=O)c2c[nH]c3ncc(-c4ccc(Cl)cc4)cc23)c1F [vemurafenib]
Procedure, shortened: (§1)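 K562 pellets were dounce-homogenised in PBS pH 7.4 containing 1 mM MgCl2, and the crude extract, at 1 mg/mL protein, was exposed to 10 μM compound for 30 min. Aliquots were heated for 3 min across 48°C-58°C, pooled, brought to 0.5% NP-40 at 4°C and spun at 21,000xg for 90 min, with the supernatant taken as soluble protein. TMTpro 16plex LC-MS/MS with equalised channel sums quantified that protein. Values are log-two fold changes in thermal stability relative to solvent controls, taken from duplicates.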

[2] = compound: CCN(CCCOc1ccc2c(Nc3cc(CC(=O)Nc4cccc(F)c4)[nH]n3)ncnc2c1)CCOP(=O)(O)O [barasertib]
Procedure, shortened: as §1

[3] = compound: CC[C@@H]1C(=O)N(C)c2cnc(Nc3ccc(C(=O)NC4CCN(C)CC4)cc3OC)nc2N1C1CCCC1
Procedure, shortened: as §1

[4] = compound: CCn1c(C(=O)N(C2CC2)C2CC2)cc2c3c(ncn3C)c(Nc3cc(C)n(C)n3)nc21
Procedure, shortened: as §1

[5] = compound: CCn1cc(-c2ccnc3[nH]c(-c4cccc(CN(C)C)c4)cc23)c(-c2ccc(NC(=O)N(C)C)cc2)n1
Procedure, shortened: as §1

[6] = compound: CN1CCC(CNc2ccc3ncc(-c4cccc(OC(F)(F)F)c4)n3n2)CC1
Procedure, shortened: as §1

[7] = compound: CN1CCN(CCOc2cc(OC3CCOCC3)c3c(Nc4c(Cl)ccc5c4OCO5)ncnc3c2)CC1 [saracatinib]
Procedure, shortened: as §1

[8] = compound: CN1CCN(c2nc(C3=C(c4c[nH]c5ccccc45)C(=O)NC3=O)c3ccccc3n2)CC1 [sotrastaurin]
Procedure, shortened: as §1

[9] = compound: CN1CC[C@H](c2c(O)cc(O)c3c(=O)cc(-c4ccccc4Cl)oc23)[C@H](O)C1 [alvocidib]
Procedure, shortened: as §1

[10] = compound: CN1CCc2c(c3ccccc3n2Cc2ccc(C(=O)NO)cc2)C1 [Tubastatin A]
Procedure, shortened: as §1

[11] = compound: CNC(=O)C1=CC=CC=C1NC2=NC(=NC=C2Cl)NC3=C(C=C(C=C3)N4CCOCC4)OC
Procedure, shortened: as §1

[12] = compound: CNC(=O)c1ccc(Nc2ncc(C(F)(F)F)c(NCc3nccnc3N(C)S(C)(=O)=O)n2)cc1 [defactinib]
Procedure, shortened: as §1

[13] = compound: CNc1nc(-c2ccc3c(N)n[nH]c3c2)cc(N2C[C@@H](C(=O)NC3CCCCC3)CC[C@H]2C)n1
Procedure, shortened: as §1

[14] = compound: COC(=O)N[C@@H](C)CNc1nccc(-c2cn(C(C)C)nc2-c2cc(Cl)cc(NS(C)(=O)=O)c2F)n1 [encorafenib]
Procedure, shortened: as §1

[15] = compound: COC(=O)[C@H](CCSC)NC(=O)C1=C(C=C(C=C1)NC[C@H](CS)N)C2=CC=CC=C2
Procedure, shortened: as §1

[16] = compound: COc1cc(Nc2ncc3c(n2)-c2ccc(Cl)cc2C(c2c(F)cccc2OC)=NC3)ccc1C(=O)O [alisertib]
Procedure, shortened: as §1

[17] = compound: COc1cc2ncnc(Nc3ccc(F)c(Cl)c3)c2cc1OCCCN1CCOCC1 [gefitinib]
Procedure, shortened: as §1

[18] = compound: CCCS(=O)(=O)Nc1ccc(F)c(C(=O)c2c[nH]c3ncc(Cl)cc23)c1F
Procedure, shortened: as §1

[19] = compound: CC[C@@H]1C(=O)N(C)c2cnc(Nc3ccc(C(=O)N[C@H]4CC[C@H](N5CCN(CC6CC6)CC5)CC4)cc3OC)nc2N1C(C)C [volasertib]
Procedure, shortened: as §1

[20] = compound: COc1cc2nc(-c3cc(F)ccc3O)nc(N[C@@H]3CNC[C@H]3C(C)(C)O)c2cc1OC
Procedure, shortened: as §1

Measured: log2 fold change

LTO1 (UniProt Q8WV07)
inactive: [1] 0.019 | [2] -0.108 | [3] 0.047 | [4] -0.011 | [5] 0.086 | [6] -0.064 | [7] 0.019 | [8] -0.016 | [9] 0.039 | [10] 0.037 | [11] -0.073 | [12] 0.009 | [13] 0.011 | [14] 0.058 | [15] 0.067 | [16] -0.202 | [17] 0.238

MAST2 (UniProt Q6P0Q8)
inactive: [1] 0.134 | [18] -0.062 | [2] 0.105 | [3] 0.068 | [19] 0.045 | [4] -0.127 | [5] 0.102 | [6] 0.06 | [7] 0.056 | [8] -0.024 | [9] -0.096 | [10] -0.06 | [11] 0.219 | [12] -0.009 | [13] -0.009 | [14] 0.114 | [15] 0.078 | [20] -0.002

MARF1 (UniProt Q9Y4F3)
inactive: [1] -0.093 | [2] 0.051 | [3] -0.059 | [4] 0.007 | [5] -0.027 | [6] -0.059 | [7] 0.027 | [8] 0 | [9] -0.024 | [10] -0.194 | [11] 0.024 | [12] -0.157 | [13] -0.021 | [14] 0.053 | [15] 0.086 | [16] -0.056 | [17] 0.02

MAGI3 isoform 1 (UniProt Q5TCQ9)
inactive: [1] -0.006 | [18] 0.008 | [2] 0 | [3] 0.033 | [19] -0.076 | [4] -0.009 | [5] -0.032 | [6] 0.022 | [7] -0.014 | [9] -0.089 | [10] -0.119 | [11] -0.049 | [12] -0.037 | [13] -0.053 | [14] -0.041 | [15] 0.019 | [16] -0.009 | [20] 0.012 | [17] -0.141

LZTS2 (UniProt Q9BRK4)
inactive: [1] 0.253 | [18] 0.054 | [2] 0.081 | [3] 0.156 | [19] 0.08 | [7] 0.081 | [8] 0.026 | [11] 0.073 | [12] -0.224 | [13] 0.082 | [14] -0.253 | [15] -0.158 | [16] 0.008 | [20] -0.063 | [17] 0.127

MAP2K1 (UniProt Q02750)
inactive: [1] 0.056 | [18] 0.194 | [2] 0.022 | [3] -0.043 | [19] -0.051 | [4] -0.057 | [5] 0.281 | [6] -0.041 | [7] 0.032 | [8] 0.015 | [9] 0.06 | [10] -0.011 | [11] 0.066 | [12] 0.013 | [13] 0.028 | [14] -0.07 | [15] -0.063 | [16] -0.036 | [20] 0.021 | [17] 0.029

MACF1, A0A0A6YYJ5
inactive: [1] 0.062 | [2] 0.1 | [3] 0.116 | [4] 0.076 | [5] -0.035 | [6] -0.129 | [7] 0.04 | [8] -0.006 | [9] -0.022 | [10] -0.02 | [11] -0.023 | [12] -0.092 | [13] -0.094 | [14] -0.037 | [15] 0.014 | [16] -0.03 | [17] -0.011

MAP3K1 (UniProt Q13233)
inactive: [1] 0.035 | [3] -0.002 | [4] -0.167 | [5] -0.083 | [6] 0.104 | [8] -0.232 | [9] 0.122 | [10] -0.111 | [12] 0.007 | [14] 0.133 | [15] 0.235 | [16] -0.086 | [17] 0.027

MAP7 (UniProt Q14244)
inactive: [1] -0.013 | [18] 0 | [2] 0.037 | [3] 0.118 | [19] 0.007 | [5] 0.107 | [6] 0.062 | [7] 0.003 | [8] -0.046 | [9] -0.05 | [11] -0.02 | [12] 0.031 | [13] 0.021 | [14] 0.109 | [15] 0.009 | [16] 0.043 | [20] 0.021 | [17] 0.048

MAP3K20 isoform 2 (UniProt Q9NYL2)
inactive: [1] 0.082 | [18] 0.074 | [2] -0.026 | [3] 0.216 | [19] -0.133 | [4] -0.002 | [5] 0.064 | [6] -0.065 | [7] 0.097 | [8] -0.064 | [9] 0.048 | [10] -0.012 | [11] 0.011 | [12] 0.109 | [13] -0.095 | [14] 0.076 | [15] -0.114 | [20] -0.016 | [17] -0.073

MAGEA4 (UniProt P43358)
inactive: [1] -0.046 | [18] -0.07 | [3] -0.07 | [19] -0.04 | [4] 0.05 | [5] 0.293 | [6] -0.075 | [7] 0.054 | [8] -0.02 | [9] -0.066 | [10] -0.013 | [11] -0.029 | [12] 0.175 | [13] -0.078 | [14] 0.103 | [15] -0.022 | [16] -0.019 | [20] -0.04 | [17] 0.128

MARVELD1 (UniProt Q9BSK0)
inactive: [1] -0.074 | [2] 0.063 | [5] -0.026 | [6] 0.277 | [7] 0.131 | [9] -0.017 | [11] -0.141 | [12] 0.269 | [13] 0.212

MAPK11 (UniProt Q15759)
inactive: [18] 0.262 | [2] 0.129 | [19] -0.054 | [4] -0.154 | [8] -0.37 | [10] -0.001 | [11] 0.709 | [16] -0.082 | [20] -0.296 | [17] 0.02

MAN2B2 (UniProt Q9Y2E5)
active: [5] 0.648 | [6] -0.649
inactive: [18] -0.028 | [2] -0.047 | [3] -0.013 | [19] -0.006 | [4] -0.022 | [7] -0.053 | [8] -0.024 | [9] 0.199 | [10] 0.029 | [11] -0.006 | [13] 0.059 | [14] -0.004 | [15] 0.073 | [16] 0.032 | [20] 0.049 | [17] -0.017

MAGEA3 (UniProt P43357)
inactive: [1] 0.065 | [3] -0.022 | [8] 0.059 | [12] -0.052 | [14] -0.069 | [15] 0.137
